Laboratory results: PubChem BioAssay AID504444 (National Center for Advancing Translational Sciences (NCATS), 2011)
“And” between values parts separate entries of the source, which are not always exact repeats. Equal entries are not always repeated. The campaign covered roughly 360,000 compounds. About 7,500 (2.1%) were called active. Inconclusive results, whose numbers are uncertain, are shown with a selection of clear calls. Calls come from the whole dose curve; as a rule, active = well fitted inhibition curve with a large enough effect; inconclusive = small, poorly fitted or top-dose-only effect, or effect the other way; inactive = flat fitted curve, though single readings scatter. Potencies of inconclusive entries are doubtful fits and often do not repeat.

assay: Nrf2 qHTS screen for inhibitors; conditions: A549 ARE-Fluc reporter, luciferase luminescence, 18-24 h; activity change, negative = inhibition: at 46 µM (top of the series); note: nearly all actives have a fitted effect of over 60% in size
In short: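 A549 ARE_Fluc cells, 5000/well, 5% FBS OPTI-MEM; compounds in dose-response, 18-24 h at 37 °C/5% CO2; CellTiter-Fluor viability read (Ex 405/Em 525), then BugLite luciferase luminescence = Nrf2 activity.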
% is set by controls: 0 for no effect and ±100 for the full control effect; potency is the fitted concentration of half-maximal effect.

SMILES	Potency	activity change, negative = inhibition
CC(=O)N1CCSc2ccc(S(=O)(=O)NCc3ccccc3)cc21	inconclusive: 14.6 µM [falling, partial curve, poor fit]	
CC1CCCCC12NC(=O)N(CC(=O)N1CCN(Cc3ccc(C#N)cc3)CC1)C2=O (stereo not given)	active: 5.8 µM	
CCc1ccc(C(=O)CC2(O)C(=O)N(CCc3ccccc3)c3ccc(Cl)cc32)cc1 (stereo not given)	inconclusive: 29.1 µM [falling, single point]	
CNC(=O)C1CCC(Cn2c(=O)c3sccc3n(CC(=O)N3CCC(C)CC3)c2=O)CC1 (stereo not given)	inconclusive: 18.4 µM [activator, partial curve, poor fit]	
Cc1cccc(/C=N/NC(=O)CNc2cccc3ccccc23)n1	inconclusive: 7.31 µM [falling, partial curve]	
O=C(NCc1cccc(C(F)(F)F)c1)c1cc(-c2ccccc2)nn1CC1CC(c2cccnc2)=NO1 (stereo not given)	inconclusive: 23.1 µM [falling, single point]	
Cc1cc(Cl)c2oc(C(=O)N(C)C3CCOC3)c(C)c2c1 (stereo not given)	inconclusive: 5.8 µM [activator, full curve]	
Cn1c(=O)c(/C=C/c2ccc(F)cc2)nc2ccccc21	inconclusive: 13 µM [activator, partial curve]	
COc1c(F)c(F)c(C(=O)Nc2ccc(N3CCN(C(C)=O)CC3)c(Cl)c2)c(F)c1F	inconclusive: 29.1 µM [falling, single point]	
Cn1c(=O)c2c(-c3ccc(Cl)cc3)n(CCc3ccccc3)cc2n(C)c1=O	inconclusive: 6.51 µM [activator, single point]	
c1ccc(-c2nc3cnccn3c2Nc2ccc3c(c2)OCCO3)cc1	inconclusive: 13 µM [falling, partial curve, poor fit]	
Cc1ccccc1/C=C/C(=O)c1ccc([N+](=O)[O-])o1	inconclusive: 23.1 µM [falling, single point]	
O=S1(=O)Nc2c(cc(Cl)c3ccc(Cl)nc23)-c2ccccc21		inactive: 19.2%
Cc1ccc(C(=O)CCC(=O)OCC(=O)Nc2nnc(-c3ccccc3)o2)cc1	inconclusive: 2.31 µM [activator, partial curve]	
CCOC(=O)c1c(C)oc2nc(C)nc(NCCCN3CCN(c4cc(C)ccc4C)CC3)c12	inconclusive: 9.2 µM [activator, partial curve, poor fit]	
CCCCn1c(Oc2ccc(C(=O)OC)cc2)nc2c1c(=O)n(C)c(=O)n2C	inconclusive: 29.1 µM [falling, single point]	
Cc1ccc(-c2cn(-c3ccccc3)c3[n+]2CCCS3)cc1	active: 3.66 µM and active: 4.61 µM	
O=C(CN1CCCC1)Nc1ccc(-c2nc3cc(NC(=O)CN4CCCC4)ccc3o2)cc1	inconclusive: 11.6 µM [activator, partial curve]	
CC(C)(C)OC(=O)NCCCC[C@H](NC(=O)c1[nH]cnc1C(=O)Nc1ccc(Cl)cc1)C(=O)OC(C)(C)C	inconclusive: 29.1 µM [falling, single point]	
CC(C)c1ccc(Nc2c(-c3ccccn3)nc3ccccn23)cc1	inconclusive: 6.51 µM [falling, single point]	
CCCOc1ccccc1OCC(=O)N1CCN(S(=O)(=O)c2ccc(Cl)cc2)CC1	inconclusive: 32.6 µM [falling, partial curve, poor fit]	
CC(C)c1ccc(NC(=O)C2CC3CCC2C3)cc1 (stereo not given)	inconclusive: 9.2 µM [activator, partial curve]	

Single entries from the list:
Potency with CC(C)(C)OC(=O)NCCCC[C@H](NC(=O)c1[nH]cnc1C(=O)Nc1ccc(Cl)cc1)C(=O)OC(C)(C)C is entered as inconclusive: 29.1 µM [falling, single point]
Potency with CCCOc1ccccc1OCC(=O)N1CCN(S(=O)(=O)c2ccc(Cl)cc2)CC1 is entered as inconclusive: 32.6 µM [falling, partial curve, poor fit]
Potency with CC1CCCCC12NC(=O)N(CC(=O)N1CCN(Cc3ccc(C#N)cc3)CC1)C2=O (stereo not given) is entered as active: 5.8 µM
Potency with CC(C)c1ccc(Nc2c(-c3ccccn3)nc3ccccn23)cc1 is entered as inconclusive: 6.51 µM [falling, single point]
Potency with Cc1ccc(C(=O)CCC(=O)OCC(=O)Nc2nnc(-c3ccccc3)o2)cc1 is entered as inconclusive: 2.31 µM [activator, partial curve]

(cont.)

SMILES	Potency	activity change, negative = inhibition
CC(=O)c1c(C)[nH]c(C(=O)OCC(=O)Nc2cccnc2Cl)c1C	active: 25.9 µM	
Cc1c(C(=O)NCc2cccnc2)oc2ccc(S(=O)(=O)N3CCCC(C)C3)cc12 (stereo not given)	inconclusive: 16.4 µM [falling, single point]	
Oc1ccccc1CN(Cc1ccco1)CC(O)COCc1ccc(Cl)cc1 (stereo not given)		inactive: -1.5%
COc1ccc(-c2nc(CSCC(=O)NCc3ccccc3Cl)c(C)o2)cc1OC	inconclusive: 29.1 µM [falling, single point]	
c1csc(C(c2nnnn2C2CCCCC2)N2CCN(c3nc4ccccc4s3)CC2)c1 (stereo not given)	inconclusive: 16.4 µM [activator, single point]	
O=C(Nc1ccncc1)c1c(Cl)cccc1Cl	inconclusive: 18.4 µM [falling, single point]	
Cn1c(=O)c2[nH]c(=S)n(Cc3ccccc3)c2n(C)c1=O		inactive: -14.5%
O=C(Nc1ccc(F)cc1)c1nsc(Cl)c1Cl	inconclusive: 2.06 µM [activator, full curve]	
CSc1ccccc1NC(=O)CN(C)Cc1ccc(Br)cc1	inconclusive: 25.9 µM [falling, partial curve, poor fit]	
Cc1cccc(NC(=O)c2ccc(OCc3c(C)noc3C)cc2)c1	inconclusive: 25.9 µM [falling, partial curve]	
COc1ccc(Nc2nc3ccccc3n3cnnc23)cc1	inconclusive: 0.092 µM [falling, full curve, poor fit]	
CCOc1ccccc1NC(=O)CSc1ccc2nnc(-c3cccnc3)n2n1	inconclusive: 16.4 µM [falling, single point]	
CCN(CCO)C1CC(=O)N(c2ccccc2C)C1=O (stereo not given)	inconclusive: 2.91 µM [falling, partial curve, poor fit]	
O=C(c1ccncc1)N1CCN(c2ccc3ccccc3n2)CC1	inconclusive: 29.1 µM [falling, single point]	
CN1C(=S)N(c2cccnc2)C(=O)/C1=C\c1ccc(N(C)C)cc1		inactive: -4.75%
Cc1occc1C(=O)N1CCCC(Nc2ccc(C(C)C)cc2)C1 (stereo not given)	inconclusive: 29.1 µM [falling, single point]	
Cc1onc(-c2ccccc2Cl)c1C(=O)c1ccccc1		inactive: -3.05%
Cc1occc1C(=O)N/N=C/c1ccc(N(C)C)cc1	inconclusive: 0.13 µM [activator, full curve, poor fit]	
COc1ccc(CCNC(=O)CCSc2nc(-c3ccco3)cc(C(F)(F)F)n2)cc1	inconclusive: 16.4 µM [falling, partial curve, poor fit]	
O=C(/C=C/c1ccccc1)Nc1cccc(C(=O)NCCCCc2ccccc2)c1	inconclusive: 29.1 µM [falling, single point]	
COc1cc(/C=C/C(=O)Nc2nnc(CC(C)(C)C)s2)cc(OC)c1OC		inactive: 4.37%
O=C(COCc1cc(-c2ccc3c(c2)OCO3)on1)Nc1cc(Cl)ccc1O		inactive: 8.7%

SMILES	Potency	activity change, negative = inhibition
CCC(C)(C)c1nnc(NC(=O)c2cccc([N+](=O)[O-])c2)s1	inconclusive: 20.6 µM [activator, single point]	
Cc1ccccc1NC(=O)C1Cc2ccccc2CN1C(=O)c1ccco1 (stereo not given)	inconclusive: 3.66 µM [activator, partial curve, poor fit]	
CCOc1ccccc1C(=O)Nc1cccc(-c2ccc(N3CCOCC3)nn2)c1	inconclusive: 7.31 µM [activator, partial curve]	
CCN(CCCNC(=O)Cn1ncc2c([nH]c3ccc(C)cc32)c1=O)c1ccccc1	inconclusive: 14.6 µM [activator, partial curve, poor fit]	
Cc1cccc(NC(=O)c2cc3c(=O)n(Cc4cccnc4)ccc3nc2C)c1	inconclusive: 29.1 µM [falling, single point]	
CCn1c(-c2ccccc2Cl)nn(CC(=O)Nc2ccc(OC)cc2)c1=S	inconclusive: 18.4 µM [falling, single point]	
CC1CCCN(C(=O)C2CCN(S(=O)(=O)c3ccc4c(c3)CC(C)N4C(=O)C3CC3)CC2)C1 (stereo not given)	inconclusive: 6.51 µM [falling, single point]	
COc1cccc(-c2noc(CCCC(=O)NC3CCCC3)n2)c1	inconclusive: 29.1 µM [falling, single point]	
O=C(NCCO)c1ccc2nc(-c3ccco3)c(-c3ccco3)nc2c1		inactive: 8.41%
O=C(COC(=O)C(O)c1ccccc1)NC12CC3CC(CC(C3)C1)C2 (stereo not given)		inactive: 18.8%
COc1ccc(Cc2nc(-c3cccs3)no2)cc1	inconclusive: 23.1 µM [activator, partial curve]	
COc1ccc(C2=NN(C(=O)c3ccncc3)C(c3ccccc3O)C2)cc1 (stereo not given)	inconclusive: 18.4 µM [falling, single point]	
O=C(COc1ccccc1[N+](=O)[O-])N1CCC(Cc2ccccc2)CC1		inactive: 2.45%
CC(NC(=O)c1ccc2c(c1)sc1nc(-c3ccc(F)cc3)cn12)C12CC3CC(CC(C3)C1)C2 (stereo not given)	inconclusive: 23.1 µM [activator, partial curve, poor fit]	
FC(F)(F)c1cccc(Nc2c3c(nc4ccc(Cl)cc24)CCC3)c1	inconclusive: 20.6 µM [falling, single point]	
COc1ccc(/C=N/NC(=O)C(=O)N2CCCCCC2)cc1O		inactive: -11.3%
CC(=O)N(C)c1ccc(OCC(O)CN(Cc2ccco2)S(=O)(=O)c2ccc(C)cc2)cc1 (stereo not given)	inconclusive: 10.3 µM [falling, single point]	
COC(=O)c1ccccc1NC(=O)NCc1ccccn1		inactive: -9.74%
CCCCCN1C(C(=O)c2ccccc2)=C(OC(=O)CC)c2ccccc2S1(=O)=O	active: 5.8 µM	
COc1ccc(Cl)cc1NCC(=O)Nc1ccc(OC)c(S(=O)(=O)N2CCCCC2)c1	inconclusive: 29.1 µM [falling, single point]	
CCOc1ccccc1CNC(=O)C1Cc2cc(S(=O)(=O)N3CCCCC3)ccc2N1C(C)=O (stereo not given)	inconclusive: 1.03 µM [falling, partial curve, poor fit]	
